Assay results reported in PubChem BioAssay AID901 (National Center for Advancing Translational Sciences (NCATS), 2007).
Several values for one entry are separate records, joined by “and”; a condition that tells them apart may be missing. Equal entries are not always repeated. This is one part of the list. Shown are side measurements of this screen, not its main read-out; they come without a call. Compounds called inactive in the main read-out are mostly missing here. Words in brackets tell the shape of the fitted curve; partial curves, single points and poor fits give uncertain potencies.

Experiment: qHTS Assay for Identifying the Cell-Membrane Permeable IMPase Inhibitors
Details: CHO-M1 cells, IP1 accumulation, HTRF TR-FRET ratio; measured here: donor channel 620 nm AC50

Row | SMILES | AC50
1 | CCOC(=O)c1c(Nc2ccc(O)cc2)nnc(-c2ccccc2)c1-c1ccccc1 | 20 µM [rising, single point]
2 | COC(=O)c1ccc(C2c3c(oc4ccc(C)cc4c3=O)C(=O)N2Cc2ccc3c(c2)OCO3)cc1 (stereo unspecified) | 1.26 µM [falling, partial curve, poor fit]
3 | Cc1ccccc1Nc1c(N)c(=O)oc2ccccc12 | 0.708 µM [rising, full curve, poor fit]
4 | O=C1c2ccccc2C(Nc2ccc(F)cc2F)N1CCN1CCOCC1 (stereo unspecified) | 15.8 µM [falling, partial curve, poor fit]
5 | Cc1cc(=O)oc2cc(NC(=O)CCC(=O)O)ccc12 | 5.01 µM [falling, single point]
6 | O=C1c2ccccc2C(=O)C1c1ccnc2ccccc12 | 31.6 µM [rising, single point]
7 | CCC(CC)c1nnc(NC(=O)c2ccc(N3CCCC3=O)cc2)s1 | 1.26 µM [falling, partial curve]
8 | COCCCNc1ccnc2c(Cl)cccc12 | 31.6 µM [falling, single point]
9 | O=C1CC(c2cc(F)cc(F)c2)c2cc3c(cc2N1)OCO3 (stereo unspecified) | 10 µM [falling, partial curve, poor fit]
10 | O=C(O)Cn1cc(C(=O)c2ccco2)c2ccccc21 | 20 µM [falling, partial curve, poor fit]
11 | CCOC(=O)CNc1c(-c2ccc(OC)cc2)nc2ccc(Cl)cn12 | 0.00398 µM [falling, full curve, poor fit]
12 | CCc1nnc(NC(=O)C2CC(=O)N(c3ccc(C)cc3)C2)s1 (stereo unspecified) | 0.251 µM [falling, full curve, poor fit]
13 | Cc1ccc2nc(SCC(=O)N3c4ccccc4CC3C)c(C)cc2c1 (stereo unspecified) | 31.6 µM [rising, single point]
14 | O=C(COC(=O)c1cnccn1)NCCc1ccccc1 | 5.01 µM [falling, single point]
15 | COc1ccc(C2=NC(=O)/C(=C\c3cc(OC)c(OC)c(OC)c3)O2)cc1 | 3.55 µM [falling, partial curve]
16 | COc1ccc(CN2CCN(C(=O)c3ccco3)CC2)cc1OCc1ccccc1 | 0.00631 µM [rising, full curve, poor fit]
17 | O=C(c1ccc(F)cc1)N1CCC(N2CCOCC2)CC1 | 0.0631 µM [rising, full curve, poor fit]
18 | COc1ccc(NC(=O)c2c3c(nc4ccccc24)CCC3)cc1 | 0.0158 µM [falling, full curve, poor fit]
19 | Cc1ccccc1N(C(=O)Cc1ccsc1)C(C(=O)NC1CCCCC1)c1ccc(F)cc1 (stereo unspecified) | 0.0501 µM [rising, partial curve, poor fit]
20 | COc1cc(S(=O)(=O)N2CCOCC2)ccc1NC(=O)c1cc2c(s1)CCC2 | 3.16 µM [falling, full curve]
21 | Cc1nc(NC(=O)c2cccc(-c3cc4ccccc4oc3=O)c2)ccc1Br | 3.98 µM [rising, full curve]
22 | COc1ccc(C2CC(=O)Nc3sc(=N)c4c(N)c(C#N)c(N)nc4c32)cc1OC (stereo unspecified) | 31.6 µM [falling, single point]

Row | SMILES | AC50
23 | O=C(CCCOc1ccc(Cl)cc1Cl)N/N=C/c1cccc([N+](=O)[O-])c1 | 1.26 µM [falling, full curve, poor fit]
24 | Cc1ccc(-c2cnc(N)n2C)cc1C | 0.501 µM [falling, full curve, poor fit]
25 | O=C(COC(=O)c1ccccc1SCC(=O)NC1CCCCC1)NC1CCCCC1 | 3.16 µM [rising, partial curve, poor fit]
26 | CCOCCc1nnc(NC(=O)CN2C(=O)c3ccccc3C2=O)s1 | 15.8 µM [rising, single point]
27 | Cc1ccccc1C(=O)Nc1ccc2oc(-c3ccc(Cl)c(Cl)c3)nc2c1 | 11.2 µM [rising, partial curve]
28 | C/C(=N\NC(=O)C(=O)Nc1cccc(C(F)(F)F)c1)c1ccc(Cl)s1 | 3.98 µM [rising, partial curve, poor fit]
29 | COC(=O)c1[nH]c2ccc(Cl)cc2c1NC(=O)CN1CCc2cc(OC)c(OC)cc2C1 | 7.94 µM [falling, partial curve, poor fit]
30 | OC(CNc1ccccc1)COc1ccc(OCC(O)CNc2ccccc2)cc1 (stereo unspecified) | 1 µM [rising, full curve]
31 | O=S(=O)(c1cccc(-c2nc3ccccc3s2)c1)N1CCCC1 | 5.01 µM [rising, single point]
32 | COc1nccnc1NS(=O)(=O)c1ccc(N=Cc2c(C)[nH]n(-c3ccc(C)c(C)c3)c2=O)cc1 | 0.0126 µM [falling, full curve, poor fit]
33 | COc1ccccc1OCC(=O)O | 63.1 nM [rising, full curve, poor fit] and 794 nM [falling, full curve]
34 | CCOC(=O)COc1ccc(/C=C2/SC(=Nc3ccccc3)N(Cc3cccnc3)C2=O)cc1OC | 2 µM [falling, partial curve]
35 | Cc1cccc(NC(=O)NCc2ccccn2)c1 | 3.98 µM [falling, partial curve, poor fit]
36 | CCc1cc2cc(C(=O)N3CCN(Cc4ccccc4)CC3)sc2s1 | 0.0398 µM [rising, full curve, poor fit]
37 | Cc1sc(NC(=O)C2c3ccccc3Oc3ccccc32)c(C(=O)OC(C)C)c1C | 3.16 µM [falling, single point]
38 | C=CCNC(=S)Nc1sc2c(c1C(=O)OCC)CCN(C(=O)OCC)C2 | 31.6 µM [rising, single point]
39 | O=C(Cn1c(=O)n(Cc2ccco2)c(=O)c2ccccc21)NCC1CCCO1 (stereo unspecified) | 0.0501 µM [falling, full curve, poor fit]
40 | Cc1ccc(-n2nc3cc(C)c(NC(=O)c4cccnc4)cc3n2)cc1 | 31.6 µM [rising, single point]
41 | O=C(c1ccc2c(c1)OCO2)n1nnc2ccccc21 | 0.01 µM [rising, full curve, poor fit]
42 | CCCC(c1nnnn1Cc1ccccc1)N1CCN(c2ccccc2OC)CC1 (stereo unspecified) | 5.01 µM [rising, single point]
43 | O=C(c1cc(-c2ccco2)on1)N1CCc2ccccc2C1 | 0.158 µM [falling, full curve, poor fit]
44 | O=C(O)c1ccccc1C(=O)N1CC=C(c2ccccc2)CC1 | 2.51 µM [rising, full curve, poor fit]

Row | SMILES | AC50
45 | Cc1ccc(N/C=C(/C#N)c2ccsc2)cc1 | 0.02 µM [falling, full curve, poor fit]
46 | O=C(c1ccccc1F)N1CCC(O)(c2cccnc2)CC1 | 15.8 µM [falling, partial curve, poor fit]
47 | C=CCNC(=O)c1ccc(OC)cc1OC | 35.5 µM [falling, single point]
48 | O=C(Nc1ccc(N2CCOCC2)cc1)C1CCCCC1 | 31.6 µM [falling, single point]
49 | CCOc1ccc2nnc(-c3ccc(Br)cc3)n2n1 | 31.6 µM [rising, single point]
50 | COC(=O)CSc1nnc(CCc2nc3ccccc3[nH]2)n1C | 1 µM [falling, full curve]
51 | C/C(=N\NC(=O)CC1N=C(Cc2ccccc2)NNC1=O)c1ccc(Cl)cc1Cl (stereo unspecified) | 6.31 µM [rising, single point]
52 | Cc1cc(C)c(S(=O)(=O)N(C)CC(=O)N2CCCCC2)c(C)c1 | 12.6 µM [falling, partial curve, poor fit]
53 | Cc1ccc(SCCC(=O)NC(C)C)cc1 | 0.631 µM [falling, full curve]
54 | COc1cccc(NC(=O)CN2CCN(c3nc(-c4cccc(OC)c4)cs3)CC2)c1 | 31.6 µM [falling, single point]
55 | CCOC(=O)c1c(NC(=O)CN2C(=O)NC3(CCC(CC)CC3)C2=O)sc(C)c1-c1ccc(C)cc1 (stereo unspecified) | 35.5 µM [rising, single point]
56 | COc1ccc2nc(C)cc(SCC(=O)N/N=C/c3cccc4ccccc34)c2c1 | 31.6 µM [falling, single point]
57 | CC1(C)CC(=O)C2=C(C1)N(Cc1cccnc1)C(=O)C2(NC(=O)C1CC1)C(F)(F)F (stereo unspecified) | 15.8 µM [rising, single point]
58 | COc1cccc(N2CCN(Cc3nc(N)nc(N4CCCc5ccccc54)n3)CC2)c1 | 0.501 µM [falling, single point]
59 | COCCCN(C(C)=O)c1nc(-c2ccc(OC)cc2)cs1 | 0.501 µM [rising, full curve, poor fit]
60 | CCOC(=O)c1sc(N2C(=O)c3oc4ccc(C)cc4c(=O)c3C2c2ccccc2F)nc1C (stereo unspecified) | 5.62 µM [falling, single point]
61 | Cc1ccccc1OCC(=O)Nc1cccc(N(C)S(C)(=O)=O)c1 | 35.5 µM [falling, single point]
62 | CCOC(=O)N1CCN(c2nc(C)c3c(n2)CC(C)CC3=O)CC1 (stereo unspecified) | 0.0251 µM [rising, full curve, poor fit]
63 | COc1ccc(CNC(=O)C2CSCCS2)cc1 (stereo unspecified) | 1.26 µM [falling, full curve, poor fit]
64 | CCCC(=O)Nc1cc(-c2nc3ncccc3o2)ccc1C | 0.2 µM [rising, single point]
65 | CCOc1ccc2nc(NCCNC(=O)Nc3ccccc3)c(C#N)cc2c1 | 0.2 µM [falling, full curve]
66 | CN(C)c1nc(NCc2ccccc2)nc(SCC(=O)Nc2ccc(Cl)c(Cl)c2)n1 | 5.01 µM [rising, single point]

From no. 46 up to 66, as listed above:
Row | SMILES | AC50
46 | O=C(c1ccccc1F)N1CCC(O)(c2cccnc2)CC1 | 15.8 µM [falling, partial curve, poor fit]
47 | C=CCNC(=O)c1ccc(OC)cc1OC | 35.5 µM [falling, single point]
48 | O=C(Nc1ccc(N2CCOCC2)cc1)C1CCCCC1 | 31.6 µM [falling, single point]
49 | CCOc1ccc2nnc(-c3ccc(Br)cc3)n2n1 | 31.6 µM [rising, single point]
50 | COC(=O)CSc1nnc(CCc2nc3ccccc3[nH]2)n1C | 1 µM [falling, full curve]
51 | C/C(=N\NC(=O)CC1N=C(Cc2ccccc2)NNC1=O)c1ccc(Cl)cc1Cl (stereo unspecified) | 6.31 µM [rising, single point]
52 | Cc1cc(C)c(S(=O)(=O)N(C)CC(=O)N2CCCCC2)c(C)c1 | 12.6 µM [falling, partial curve, poor fit]
53 | Cc1ccc(SCCC(=O)NC(C)C)cc1 | 0.631 µM [falling, full curve]
54 | COc1cccc(NC(=O)CN2CCN(c3nc(-c4cccc(OC)c4)cs3)CC2)c1 | 31.6 µM [falling, single point]
55 | CCOC(=O)c1c(NC(=O)CN2C(=O)NC3(CCC(CC)CC3)C2=O)sc(C)c1-c1ccc(C)cc1 (stereo unspecified) | 35.5 µM [rising, single point]
56 | COc1ccc2nc(C)cc(SCC(=O)N/N=C/c3cccc4ccccc34)c2c1 | 31.6 µM [falling, single point]
57 | CC1(C)CC(=O)C2=C(C1)N(Cc1cccnc1)C(=O)C2(NC(=O)C1CC1)C(F)(F)F (stereo unspecified) | 15.8 µM [rising, single point]
58 | COc1cccc(N2CCN(Cc3nc(N)nc(N4CCCc5ccccc54)n3)CC2)c1 | 0.501 µM [falling, single point]
59 | COCCCN(C(C)=O)c1nc(-c2ccc(OC)cc2)cs1 | 0.501 µM [rising, full curve, poor fit]
60 | CCOC(=O)c1sc(N2C(=O)c3oc4ccc(C)cc4c(=O)c3C2c2ccccc2F)nc1C (stereo unspecified) | 5.62 µM [falling, single point]
61 | Cc1ccccc1OCC(=O)Nc1cccc(N(C)S(C)(=O)=O)c1 | 35.5 µM [falling, single point]
62 | CCOC(=O)N1CCN(c2nc(C)c3c(n2)CC(C)CC3=O)CC1 (stereo unspecified) | 0.0251 µM [rising, full curve, poor fit]
63 | COc1ccc(CNC(=O)C2CSCCS2)cc1 (stereo unspecified) | 1.26 µM [falling, full curve, poor fit]
64 | CCCC(=O)Nc1cc(-c2nc3ncccc3o2)ccc1C | 0.2 µM [rising, single point]
65 | CCOc1ccc2nc(NCCNC(=O)Nc3ccccc3)c(C#N)cc2c1 | 0.2 µM [falling, full curve]
66 | CN(C)c1nc(NCc2ccccc2)nc(SCC(=O)Nc2ccc(Cl)c(Cl)c2)n1 | 5.01 µM [rising, single point]
